Source: paper PMC12279179
Results are given in words; binding and its absence hold for the method and conditions named. In cells and extracts the contact can be indirect. Some results given as binding are weak or reduced against the parent protein; the word gives no strength. Values belong to the substance of their own block, whether it stands above or below them.

Columns and labels:
[1] = target: DDX3-Flag (UniProt O00571); experiment: co-IP; ectopically expressed DDX3-Flag (or its mutants) and Myc-PABP1 in HEK293T cells; which tag was precipitated is not told
[2] = target: GST-DDX3 (UniProt O00571); experiment: pull-down; 10 µg purified GST fusion protein incubated with HEK-293T cell lysates expressing PABP1-Myc or DDX3-Flag for 8 h at 4 °C; precipitated with GSH Magnetic Agarose Beads; blots with anti-GST, anti-Myc, anti-Flag; only the target purified
[3] = target: GST-PABP1 (UniProt P11940); experiment: as above
[4] = target: GST-DDX3 (UniProt O00571); experiment: pull-down; recombinant GST-DDX3 (GST as control) in BHK-21 cell lysate; immunoblotting; only the target purified
[5] = target: Flag-DDX3 (UniProt O00571); experiment: co-IP; BHK-21 cells with or without siPABP1 treatment, transfected with Flag-DDX3 for 24 h, lysed, immunoprecipitated with anti-Flag antibody; immunoblotting

binding [1]: binds
binding [2]: binds
Substance: Myc-PABP1 (from UniProt P11940 1-636)

binding [3]: binds
Substance: DDX3-Flag (from UniProt O00571 1-662)

binding [4]: binds
binding [5]: binds
Substance: eIF3A (from UniProt A0A8C2LEX6 1-1361)

binding [5]: binds
Substance: PABP1 (from UniProt A0A3L7ISI1 1-636)
